{"source": "patent US20260158140A1", "about": "“METHODS AND MATERIALS FOR IMPROVING T CELL THERAPIES” (Mayo Foundation for Medical Education and Research, priority 2021, published 2026)", "system": "CART19 cells", "assay": "CART19 proliferation: co-culture with irradiated JeKo-1, absolute CD3+ T cell counts by flow cytometry", "format": "cell-based, human", "experimental": "FIGS. 11A-11B. Proliferation. […] CART19 and irradiated JeKo-1 were co-cultured at 1:1 ratio for 24 hours in the presence of DMSO or vecabrutinib (1 μM or 10 μM) or ibrutinib (1 μM or 10 μM). Absolute CD3^+T cell counts were assessed by flow cytometry (*p<0.05, ****p<0.0001, two-way ANOVA). FIG. 11B) To further verify effect of BTK inhibition on CART19 proliferation, using different set of donors for CAR T cell production, CART19 and irradiated JeKo-1 were co-cultured at 1:1 ratio for 24 hours in the presence of DMSO or vecabrutinib (10 μM) or ibrutinib (10 μM).\nFor proliferation assays, CART19 cells were cultured with irradiated CD19^+ cell line Jeko-1 at a 1:1 ratio for 24 hours. Then, the cells were harvested and washed with flow buffer, following by surface staining with anti-hCD3 (eBioscience, San Diego, CA, USA) and LIVE/DEAD™ Fixable Aqua Dead Cell Stain Kit (Invitrogen, Carlsbad, CA, USA). Cells were washed twice with BD stain buffer (BD Horizon, Franklin Lakes, NJ). Cytometric data were acquired using a CytoFLEX Flow Cytometer (Beckman Coulter, Chaska, MN, USA). Gating was performed using FlowJo X10.0.7r2 software (Ashland, OR, USA). Absolute quantification was obtained using volumetric measurement or CountBright absolute counting beads (Invitrogen, Carlsbad, CA, USA). For Degranulation assays, T cells treated with DMSO or vecabrutinib were incubated with target cells at an effector: target ratio of 1:5. Antibodies against FITC-CD107a (BD Pharmingen, San Diego, CA, USA, Cat #555800), CD28 (BD Biosciences, San Diego, CA, USA, Cat #348040), CD49d (BD Biosciences, San Diego, CA, USA, Cat #340976), and monensin (Biolegend, San Diego, CA, USA, Cat #420701) were added prior to the incubation. After 4 hours, cells were harvested and stained with LIVE/DEAD™ Fixable Aqua. Cells were then fixed and permeabilized (FIX & PERM Cell Fixation & Cell Permeabilization Kit, Life Technologies, Oslo, Norway, Cat #GAS004) and stained for CD3 (clone UCHT1) APC (Cat #17-0038-42, eBioscience, San Diego, CA, USA).\nNext, the effect of vecabrutinib on CART19 proliferation was assessed. CART19 cells were cocultured with irradiated JeKo-1 cells for 24 hours in the presence of vecabrutinib (1 μM or 10 μM), and the absolute count of CART19 was measured by flow cytometry and used as a surrogate for proliferation. […] The higher the percentage of CD107a cells means that these cells are active and degranulated.", "note": "Entries after “also recorded” stand apart in the source; their conditions may differ. At least one compound was matched to its structure with a doubt left."}
{"compound": "C=CC(=O)N1CCC[C@@H](n2nc(-c3ccc(Oc4ccccc4)cc3)c3c(N)ncnc32)C1", "note": "[ibrutinib]", "values": [{"measurement": "CART19 proliferation (absolute CD3+ T cell count)", "setting": "1 μM, irradiated JeKo-1 1:1, 24 hours (FIG. 11A)", "value": "does not affect CART19 proliferation"}, {"measurement": "CART19 proliferation (absolute CD3+ T cell count)", "setting": "10 μM, different set of donors, irradiated JeKo-1 1:1, 24 hours (FIG. 11B)", "value": "decreases CART19 proliferation"}, {"measurement": "CART19 proliferation (absolute CD3+ T cell count)", "setting": "10 μM, irradiated JeKo-1 1:1, 24 hours (FIG. 11A)", "value": "significantly decreases; also recorded: toxic"}]}
